Results are given in words; binding and its absence hold for the method and conditions named. Some entries that bind do so weakly or less than the wild type.
What was measured:
[1] = biological target: human PD-L1 (Programmed Cell Death 1 Ligand 1) (human) (UniProt Q9NZQ7); test: summary of the in vitro cell binding assays
[2] = biological target: human PD-L1 (Programmed Cell Death 1 Ligand 1) (human) (UniProt Q9NZQ7); test: radioligand cell binding, 32 pM ^111In-PD-L1.3.1, 4 h, gamma counter; non-specific binding determined with 1,000-fold excess of unlabeled antibody
[3] = biological target: human PD-L1 (Programmed Cell Death 1 Ligand 1) (human) (UniProt Q9NZQ7); test: heading of the in vitro results (radioligand binding to breast cancer cells)
[4] = biological target: human PD-L1 (Programmed Cell Death 1 Ligand 1) (human) (UniProt Q9NZQ7); test: saturation binding / Scatchard analysis on cells, 3-3000 pM ^111In-PD-L1.3.1 in 1 ml, 4 h on ice, non-specific binding (100 nM PD-L1.3.1) subtracted; the panel does not name the cell line (MDA-MB-231 cells were used in subsequent binding assays)
[5] = biological target: human PD-L1 (Programmed Cell Death 1 Ligand 1) (human) (UniProt Q9NZQ7); test: binding and internalization time course on MDA-MB-231 cells, 75 pM ^111In-PD-L1.3.1 at 37 °C, acid wash to separate the membrane-bound from the internalized fraction, non-specific part (17 nM unlabeled PD-L1.3.1) subtracted, gamma counter
[6] = biological target: human PD-L1 (Programmed Cell Death 1 Ligand 1) (human) (UniProt Q9NZQ7); test: radioligand binding to confluent breast cancer cells in six-well plates, 32 pM ^111In-PD-L1.3.1, 4 h at 37 °C or on ice, non-specific binding (1,000-fold excess of unlabeled PD-L1.3.1) subtracted, gamma counter
[7] = biological target: human PD-L1 (Programmed Cell Death 1 Ligand 1) (human) (UniProt Q9NZQ7); test: competition on MDA-MB-231 cells: increasing unlabeled PD-L1.3.1 against 20 pM ^111In-PD-L1.3.1, 4 h on ice, gamma counter

By UniProt entry, the sequences of proteins in these tests, tags left out. Residues count along the entry.
UniProt Q9NZQ7, residues 19-290: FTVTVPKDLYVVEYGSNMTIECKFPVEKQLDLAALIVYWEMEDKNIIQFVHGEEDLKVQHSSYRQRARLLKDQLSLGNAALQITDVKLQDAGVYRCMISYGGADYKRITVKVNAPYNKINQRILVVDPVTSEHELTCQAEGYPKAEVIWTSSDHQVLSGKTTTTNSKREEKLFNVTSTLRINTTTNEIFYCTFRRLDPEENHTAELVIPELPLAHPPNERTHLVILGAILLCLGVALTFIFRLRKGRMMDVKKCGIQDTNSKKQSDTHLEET

Measured: binding

B1: ^111In-DTPA-PD-L1.3.1 (antibody, V domains shown)
VH: EVQLQQSGTELVKPGASVKLSCTTSGFNIQDTYMHWVKQRPEQGLEWIGWIDPANGNTKYDPKFQGKATIIADTSSNTAYLQLRGLTSEDTAVYYCARSGVSTAHFDYWGQGTTLTVSS
VL: QIVLSQSPAILSASPGEKVTMTCRASSSVSFMHWYQQKPGSSPKPWIYATSNLASGVPTRFSGSGSGTSYSLTLSRVEAEDAATYYCQQWSSYPRTFGGGTKLEIK
modifications: ITC-DTPA conjugated and chelating ^111In; residues and chain not stated
not listed: [7]
binds: all other assays above

B2: PD-L1.3.1 antibody (murine monoclonal IgG1, unlabeled) (antibody, V domains shown)
VH: B1 VH
VL: B1 VL
notes: also called PD-L1.3.1 mAb; unlabeled PD-L1.3.1
binds: [7]
